No constants are given. Whether binding was seen depends on the method and setting. Binding seen in cells or lysates may run through a third protein. Some results given as binding are weak or reduced against the parent protein; the word gives no strength.
Biological target: Bcl2, wild type, overexpressed in BEAS-2B cells (UniProt P10415)
Assay: co-IP; BEAS-2B cells overexpressing Bcl2, treated with increasing doses (0.1-1 Gy) of 56Fe, 28Si or X-ray; 1% CHAPS lysis buffer; agarose-conjugated Bcl2 antibody; western blot of Mre11 and Ku70

Chains of the proteins cited; added tags and fusions are not shown.
UniProt P10415: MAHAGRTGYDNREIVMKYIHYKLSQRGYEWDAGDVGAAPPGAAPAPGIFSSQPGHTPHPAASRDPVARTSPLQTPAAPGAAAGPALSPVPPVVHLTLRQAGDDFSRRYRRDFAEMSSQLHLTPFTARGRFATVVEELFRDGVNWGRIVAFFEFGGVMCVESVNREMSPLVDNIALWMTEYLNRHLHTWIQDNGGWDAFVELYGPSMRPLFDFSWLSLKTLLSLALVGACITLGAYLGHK
UniProt P12956: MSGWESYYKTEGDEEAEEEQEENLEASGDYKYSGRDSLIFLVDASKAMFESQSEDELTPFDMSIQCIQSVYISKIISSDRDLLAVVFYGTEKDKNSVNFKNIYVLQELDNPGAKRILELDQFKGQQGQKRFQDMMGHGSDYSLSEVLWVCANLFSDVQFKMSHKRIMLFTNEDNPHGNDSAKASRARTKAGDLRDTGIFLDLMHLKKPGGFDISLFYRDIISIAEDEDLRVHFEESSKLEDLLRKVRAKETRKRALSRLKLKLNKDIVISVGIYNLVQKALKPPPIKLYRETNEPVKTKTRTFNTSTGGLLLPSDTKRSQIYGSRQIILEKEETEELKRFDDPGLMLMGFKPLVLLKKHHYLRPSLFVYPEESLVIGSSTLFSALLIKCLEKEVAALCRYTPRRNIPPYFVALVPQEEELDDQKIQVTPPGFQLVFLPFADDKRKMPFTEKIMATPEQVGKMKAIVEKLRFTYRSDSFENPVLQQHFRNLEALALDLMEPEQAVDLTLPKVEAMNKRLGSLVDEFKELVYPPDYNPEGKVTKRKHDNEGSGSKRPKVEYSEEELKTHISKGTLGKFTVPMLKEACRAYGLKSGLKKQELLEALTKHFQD

For “Ku70, endogenous in BEAS-2B cells (from UniProt P12956 1-609)”, the binding was “binds”.

— article PMC4333404, “Bcl2 inhibits recruitment of Mre11 complex to DNA double-strand breaks in response to high-linear energy transfer radiation”
